Assay results taken from publication doi:10.1101/2024.08.29.610189 (bioRxiv, 2024).
No constants are given. Whether binding was seen depends on the method and setting. Binding seen in cells or lysates may run through a third protein. Some binding calls cover weakened binding; strength is not graded here. Tags and fused reporters may be left off the sequences shown.

Biological target: T1, Atg12–Atg5 conjugate with Atg5–FLAG, in yeast cells (S. cerevisiae) (UniProt Q12380+P38316)
T1 sequence (chain, Atg12–Atg5 protein conjugate | Atg12–Atg5 protein conjugate) 1: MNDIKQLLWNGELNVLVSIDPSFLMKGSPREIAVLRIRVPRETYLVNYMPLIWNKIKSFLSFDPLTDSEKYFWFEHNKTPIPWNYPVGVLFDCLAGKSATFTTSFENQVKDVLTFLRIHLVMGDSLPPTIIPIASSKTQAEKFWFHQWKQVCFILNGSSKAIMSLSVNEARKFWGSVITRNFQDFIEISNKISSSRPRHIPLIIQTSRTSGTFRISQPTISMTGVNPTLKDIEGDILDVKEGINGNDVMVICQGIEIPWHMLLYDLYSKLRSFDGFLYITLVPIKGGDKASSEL
T1 sequence (chain, Atg12–Atg5 protein conjugate | Atg12–Atg5 protein conjugate) 2: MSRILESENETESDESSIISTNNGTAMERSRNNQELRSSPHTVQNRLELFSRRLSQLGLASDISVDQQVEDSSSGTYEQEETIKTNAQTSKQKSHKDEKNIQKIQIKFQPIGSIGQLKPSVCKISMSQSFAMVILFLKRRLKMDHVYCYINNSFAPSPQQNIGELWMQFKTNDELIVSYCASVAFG
Experiment: co-IP

binding: binds
B1: Atg17, wild type, expressed in yeast from a pRS316-derived plasmid (protein, UniProt Q06410 1-417)
chain: MNEADVTKFVNNARKTLTDAQLLCSSANLRIVDIKKKLSSWQLSISKLNFLIVGLRQQGKFLYTILKEGIGTKLIQKQWNQAVLVVLVDEMKYWQYEITSKVQRLDGIVNELSISEKDDTDPSKLGDYISRDNVNLLNDKLKEVPVIERQIENIKLQYENMVRKVNKELIDTKLTDVTQKFQSKFGIDNLMETNVAEQFSRELTDLEKDLAEIMNSLTQHFDKTLLLQDKKIDNDEREELFKVVQGDDKELYNIFKTLHEVIDDVDKTILNLGQFLQAKIKEKTELHSEVSEIINDFNRNLEYLLIFKDISNLIDSFKNSCTQDIQTTKELCEFYDNFEESYGNLVLEAKRRKDVANRMKTILKDCEKQLQNLDAQDQEERQNFIAENGTYLPETIWPGKIDDFSSLYTLNYNVKNP
